Measurements taken from publication PMC10235067, “Increased renal elimination of endogenous and synthetic pyrimidine nucleosides in concentrative nucleoside transporter 1 deficient mice” (Nature Communications, 2023).
Values joined by “and” are separate entries in the source; they are usually repeats but may differ in a detail not shown here. Identical values can stand only once. Residues, ends and D or L forms follow the SMILES beside them.

System: CNT1
Experiment: Untargeted metabolomics of Slc28a1-/- vs Slc28a1+/+ mouse urine (24 h, ad libitum)
Conditions: Slc28a1-/- / Slc28a1+/+

Compound | log2(FC) | Fold Change
O=C(Cc1c[nH]c2ccccc12)O[C@@H]1O[C@H](C(=O)O)[C@@H](O)[C@H](O)[C@H]1O [Indole-3-acetic-acid-O-glucuronide] | -1.7 and -1.6799 | –
C[N+](C)(C)CC(CC(=O)[O-])OC(=O)CCCCCCCC(=O)O (stereo not shown) [Nonanedioylcarnitine] | 2.417 | 5.3406
CC(O)C(=O)NC(Cc1ccc(O)cc1)C(=O)O (stereo not shown) [N-lactoyl-Tyrosine] | 0.2673 | 1.2035
COc1c(-c2ccccc2)oc2cc(O)cc(O)c2c1=O [5,7-Dihydroxy-3-methoxyflavone] | -3.0764 | 0.1186
Cc1cn([C@H]2C[C@H](O)[C@@H](CO)O2)c(=O)nc1N [5-Methyldeoxycytidine] | 1.035 | 2.0491
CCOC(=O)[C@@H](N)CCCN=C(N)N [Arginine, ethyl ester] | 0.7104 | 1.6362
COC(=O)[C@@H]1[C@H]2C[C@H]3c4[nH]c5cc(O)ccc5c4CCN3C[C@@H]2CC[C@@H]1O [11-Hydroxyyohimbine] | -4.4092 | 0.04706
CCCCC=C(O)CC(=O)NCC(=O)O [3-hydroxyoct-3-enoylglycine] | -1.6672 | 0.3149
NC(C(=O)O)c1ccc(O)cc1 (stereo not shown) [4-Hydroxyphenylglycine] | -1.2312 | 0.426
COc1ccc([C@@H]2[C@@H](O)[C@H](O)[C@@H](C)N2C)cc1OC [Codonopsine] | 1.2554 | 2.3874
Nc1cc[nH]c(=O)n1 [Cytosine] | 0.7107 | 1.6366
hydroxyvalerylglycine | -2.8 and -2.836 | 1E-01 and 0.14
CSCC[C@H](NC(=O)[C@@H](N)CCC(=O)O)C(=O)O [Glutamylmethionine] (H-Glu-Met-OH) | -5.8 and -5.7934 | 2E-02 and 0.01803
C=CC(=O)O[C@@H](CC(=O)[O-])C[N+](C)(C)C [Propenoylcarnitine] | -0.3235 | 0.7992
CCCC(N)N [Butane-1,1-diamine] | -1.9 and -1.9103 | 3E-01 and 0.266
O=C(O)[C@H](Cc1ccc(O)cc1)NCC(=O)[C@@H](O)[C@H](O)[C@H](O)CO [N-(1-Deoxy-1-fructosyl)tyrosine] | 0.5786 | 1.4934
CCCCC[C@H](O)/C=C/[C@H]1C(=O)C[C@H](O)[C@@H]1CCCCCCC(=O)O [Prostaglandin D1] | 8.2347 | 301.23
O=C1CCCCC1 [Cyclohexanone] | -1.2 and -1.1905 | 4E-01 and 0.4381
Nc1nc(F)nc2c1ncn2[C@H]1CC[C@@H](CO)O1 [2-Fluoro-2',3'-dideoxyadenosine] | -2.0 and -1.9501 | 3E-01 and 0.2588
C=C(O)CCCCCC(=O)NCC(=O)O [7-hydroxyoct-7-enoylglycine] | 0.9748 | 1.9653
CCC=CCCCC(=O)NCC(=O)O [5-octenoylglycine] | -1.2752 | 0.4132
Cn1cnc2nc(N)[nH]c(=O)c21 [Epiguanine] | 0.4829 | 1.3975
CCCCCCC(=O)NCC(=O)O [N-Heptanoylglycine] | -1.4506 | 0.3659
C=C/C=C\CCCC [(Z)-1,3-Octadiene] | -2.0 and -1.9576 | 3E-01 and 0.2575
CC[C@H](C)[C@H](NC(=O)[C@@H](N)CCC(=O)O)C(=O)O [Glutamylisoleucine] (H-Glu-Ile-OH) | 2.1 and 2.0613 | 4E+00 and 4.1736

Compound | log2(FC) | Fold Change
C[N+](C)(C)CC(CC(=O)[O-])OC(=O)C=CCCC=CC(=O)O (stereo not shown) [Octa-2,6-dienedioylcarnitine] | 1.8599 | 3.6298
CCCCCCOC(=O)CCC(=O)CN [Hexaminolevulinate] | 0.5713 | 1.4859
O=C1CCCCN1 [2-Piperidinone] | 1.5 and 1.5327 | 3E+00 and 2.8933
Cc1cc(=O)c(O)cn1CCCCC(N)C(=O)O [L-Pyridosine] | 1.1722 | 2.2535
CCC(C)C(N)C(=O)N1CCCC1C(=O)O (stereo not drawn) [Isoleucylproline] (H-Ile-Pro-OH; configuration not given here) | 0.1255 | 1.0909
C=C=CCCCCC(=O)NCC(=O)O [6,7-octadienoylglycine] | 0.6304 | 1.548
C[C@@H](O)[C@@H](O)c1cnc2nc(N)[nH]c(=O)c2n1 [D-Biopterin] | 4.4533 | 21.907
O=C(O)[C@@H]1CSCN1 [Thioproline] | -5.8 and -5.8288 | 2E-02 and 0.01759
Nc1ncnc2[nH]cnc12 [Adenine] | 1.0232 | 2.0324
C[C@]12CC[C@@H]3c4ccc(O)cc4C[C@@H](O)[C@H]3[C@@H]1CC[C@@H]2O [7alpha-hydroxyestradiol] | 4.4761 | 22.256
CCCCCCC(=O)OC(CC(=O)[O-])C[N+](C)(C)C (stereo not shown) [Heptanoylcarnitine] | 3.7416 | 13.376
C[C@]12CC[C@@H](O)C[C@H]1CC[C@@H]1[C@@H]2C(=O)C[C@@]2(C)[C@H]1CC[C@]2(O)C(=O)CO [Tetrahydrocortisone] | 5.24 | 37.791
CC(=O)NCCCCC(=O)O [5-Acetamidovalerate] | 1.7 and 1.6751 | 3E+00 and 3.1934
CCC/C=C\CCCCC(O)CC(=O)OC(CC(=O)[O-])C[N+](C)(C)C (stereo not shown) [(8Z)-3-Hydroxydodec-8-enoylcarnitine] | 2.2 and 2.1576 | 4E+00 and 4.4617
NCCS(=O)(=O)O [Taurine] | -0.8067 | 0.5717
C[C@H](O)[C@H](O)C1=Nc2c(nc(N)[nH]c2=O)NC1 [Dihydrobiopterin] | 0.9879 | 1.9833
CCCCC[C@H](O)/C=C/[C@H]1CCC(=O)[C@@H]1CCCCCCC(=O)O [11-Deoxy-PGE1] | 10.469 | 1417.4
CCCCCCC=CC(=O)NCC(=O)O [2-nonenoylglycine] | 0.5112 | 1.4252
C=Cc1ccccc1 [Styrene] | -1.3 and -1.2849 | 4E-01 and 0.4104
C[N+](C)(C)CC(CC(=O)[O-])OC(=O)CC=CC=CC=CCC(=O)O (stereo not shown) [Deca-3,5,7-trienedioylcarnitine] | 1.6216 | 3.0771
Cn1cnc2nc[nH]c(=O)c21 [7-Methylhypoxanthine] | 0.5906 | 1.5058
CC(=O)OCCc1ccc(O)c(O)c1 [Hydroxy Tyrosol -Acetate] | 2.8408 | 7.1643
N[C@@H](CC1=CC(=O)C(=O)C=C1)C(=O)O [Dopaquinone] | -2.7173 | 0.1521
5'-Methylthioadenosine | -0.902 | 0.5352
